No constants are given. Whether binding was seen depends on the method and setting. Binding seen in cells or lysates may run through a third protein. Some results given as binding are weak or reduced against the parent protein; the word gives no strength. Sequences can lack the tags named with a protein.
T1: FLAG-NSY-1 (C. elegans) (UniProt Q21029)
T1 sequence: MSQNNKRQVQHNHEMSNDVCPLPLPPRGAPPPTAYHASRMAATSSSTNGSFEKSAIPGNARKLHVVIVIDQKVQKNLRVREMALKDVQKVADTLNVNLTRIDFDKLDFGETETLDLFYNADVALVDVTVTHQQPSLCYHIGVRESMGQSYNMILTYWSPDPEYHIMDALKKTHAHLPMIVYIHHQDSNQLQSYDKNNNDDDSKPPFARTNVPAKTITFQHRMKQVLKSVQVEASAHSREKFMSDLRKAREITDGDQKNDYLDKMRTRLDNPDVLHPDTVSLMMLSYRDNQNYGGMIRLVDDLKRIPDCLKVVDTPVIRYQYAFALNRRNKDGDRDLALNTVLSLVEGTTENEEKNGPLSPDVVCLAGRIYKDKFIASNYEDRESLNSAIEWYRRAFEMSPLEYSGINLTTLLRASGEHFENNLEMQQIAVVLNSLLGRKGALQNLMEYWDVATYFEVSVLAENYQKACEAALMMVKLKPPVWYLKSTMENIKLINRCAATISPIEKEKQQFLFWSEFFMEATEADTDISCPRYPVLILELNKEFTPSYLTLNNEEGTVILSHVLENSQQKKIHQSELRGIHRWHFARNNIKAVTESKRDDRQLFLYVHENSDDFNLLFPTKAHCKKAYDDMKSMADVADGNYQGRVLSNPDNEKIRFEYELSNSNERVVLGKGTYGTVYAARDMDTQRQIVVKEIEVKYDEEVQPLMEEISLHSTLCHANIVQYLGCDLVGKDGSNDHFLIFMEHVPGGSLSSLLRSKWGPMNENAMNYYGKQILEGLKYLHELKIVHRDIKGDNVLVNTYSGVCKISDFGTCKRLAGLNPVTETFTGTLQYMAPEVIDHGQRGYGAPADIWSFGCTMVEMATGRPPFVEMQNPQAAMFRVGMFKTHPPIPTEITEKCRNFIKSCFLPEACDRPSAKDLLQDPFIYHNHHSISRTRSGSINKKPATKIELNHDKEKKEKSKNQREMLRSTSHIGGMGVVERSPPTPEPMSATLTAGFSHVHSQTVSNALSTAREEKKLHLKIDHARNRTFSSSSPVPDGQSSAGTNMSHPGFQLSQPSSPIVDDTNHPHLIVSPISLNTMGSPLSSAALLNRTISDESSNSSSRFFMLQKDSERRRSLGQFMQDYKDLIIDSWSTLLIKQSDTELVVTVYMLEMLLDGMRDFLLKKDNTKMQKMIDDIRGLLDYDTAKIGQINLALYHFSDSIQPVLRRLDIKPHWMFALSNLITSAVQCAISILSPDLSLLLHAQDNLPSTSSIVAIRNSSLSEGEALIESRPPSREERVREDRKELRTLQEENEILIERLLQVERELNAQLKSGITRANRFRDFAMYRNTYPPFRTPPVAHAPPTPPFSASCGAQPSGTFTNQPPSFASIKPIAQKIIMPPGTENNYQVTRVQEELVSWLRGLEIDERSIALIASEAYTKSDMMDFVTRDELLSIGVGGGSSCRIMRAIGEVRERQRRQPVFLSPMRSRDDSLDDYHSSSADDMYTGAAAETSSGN

The chains behind the UniProt entries cited, without tags or fusion partners.
UniProt Q23356: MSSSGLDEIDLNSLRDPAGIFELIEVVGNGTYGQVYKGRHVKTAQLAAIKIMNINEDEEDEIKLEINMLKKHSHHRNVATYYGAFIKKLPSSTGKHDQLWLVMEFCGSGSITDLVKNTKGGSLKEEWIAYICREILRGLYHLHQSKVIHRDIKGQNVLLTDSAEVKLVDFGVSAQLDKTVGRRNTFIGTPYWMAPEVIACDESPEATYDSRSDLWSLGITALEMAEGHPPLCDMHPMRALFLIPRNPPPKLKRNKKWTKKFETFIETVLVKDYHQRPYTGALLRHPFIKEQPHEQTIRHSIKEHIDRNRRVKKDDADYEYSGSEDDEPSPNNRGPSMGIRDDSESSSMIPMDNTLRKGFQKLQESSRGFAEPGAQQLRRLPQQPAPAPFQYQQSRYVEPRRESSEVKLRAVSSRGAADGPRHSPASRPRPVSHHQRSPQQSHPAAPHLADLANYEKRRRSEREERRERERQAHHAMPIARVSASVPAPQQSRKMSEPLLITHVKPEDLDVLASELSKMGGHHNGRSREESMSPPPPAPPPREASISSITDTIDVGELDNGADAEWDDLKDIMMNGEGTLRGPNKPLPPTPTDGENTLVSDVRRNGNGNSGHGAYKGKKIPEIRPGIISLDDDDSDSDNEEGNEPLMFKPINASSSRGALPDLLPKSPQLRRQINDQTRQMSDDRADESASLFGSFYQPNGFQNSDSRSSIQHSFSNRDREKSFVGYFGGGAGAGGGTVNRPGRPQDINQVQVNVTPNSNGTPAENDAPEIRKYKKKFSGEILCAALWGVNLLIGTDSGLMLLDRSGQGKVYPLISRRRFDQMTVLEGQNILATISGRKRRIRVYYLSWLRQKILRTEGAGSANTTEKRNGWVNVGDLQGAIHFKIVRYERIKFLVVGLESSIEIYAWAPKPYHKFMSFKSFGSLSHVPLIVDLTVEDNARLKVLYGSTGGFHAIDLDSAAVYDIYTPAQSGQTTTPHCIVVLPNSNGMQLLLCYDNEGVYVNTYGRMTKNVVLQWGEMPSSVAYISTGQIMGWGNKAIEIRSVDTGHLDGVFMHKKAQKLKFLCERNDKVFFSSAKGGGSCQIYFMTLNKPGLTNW


Target: T1, FLAG-NSY-1 (C. elegans)
Experiment: co-IP; HEK 293-T cells co-transfected with FLAG and HA tagged kinases; lysed in 0.1% NP-40 lysis buffer (50 mM Tris pH 7.5, 150 mM NaCl, 10% glycerol, 1 mM DTT); FLAG-NSY-1 immunoprecipitated with anti-FLAG (M2) and protein G agarose at 4°C; anti-HA immunoblot

| binding | Molecule |
| --- | --- |
| binds | MIG-15-HA (from UniProt Q23356 1-1096) (enzyme) |
| binds | HA-JKK-1 (enzyme, UniProt G5EDT6 1-435) MENVCFQQRLRDLETRVRKWKFLKLGLTEVRLRPRDRRSTSVDQKHKECSSTSSSPQHQRPNNIGYLTSPMERKFTPLSMKPSPSRRDTEKDALEYEFLEGYKKSGTLEIDGEKQVVDPNEIHIISLLGSGSCGVVESATVRSKLMAVKTMYKNDNKENLKRILRDVRIMSMCNSPFIVTSYGYFMFDSSVKICMQIMSACCEKLLRRIYHSKLDFFPEFVAGHIVYSAISALDYLKEKHSIIHRDIKPSNILFDDSGNVKLCDFGISGFMTDSMAHSKSAGCPPYMAPERLTIETNSKYDVRSDVWSLGITVYQLVTGLYPFPLNDMEFTTLTIIANLNLPSPSLREETKRSFSPLFIEFLDLCLRKDVRERPEYRQLMKHDFYLDYDPASGSAYKFKAINGKCNQVADWFVDVIRLSKTEDELKSIPNTPCVN |

Source: publication PMC5754208
